In publication PMC12574955, “The Ync13–Rga7–Rng10 complex selectively coordinates secretory vesicle trafficking and secondary septum formation during cytokinesis” (PLOS Biology, 2025):
Results are given in words; binding and its absence hold for the method and conditions named. Some entries that bind do so weakly or less than the wild type. Tags and fused reporters may be left off the sequences shown.

The chains behind the UniProt entries cited, without tags or fusion partners.
UniProt Q10287: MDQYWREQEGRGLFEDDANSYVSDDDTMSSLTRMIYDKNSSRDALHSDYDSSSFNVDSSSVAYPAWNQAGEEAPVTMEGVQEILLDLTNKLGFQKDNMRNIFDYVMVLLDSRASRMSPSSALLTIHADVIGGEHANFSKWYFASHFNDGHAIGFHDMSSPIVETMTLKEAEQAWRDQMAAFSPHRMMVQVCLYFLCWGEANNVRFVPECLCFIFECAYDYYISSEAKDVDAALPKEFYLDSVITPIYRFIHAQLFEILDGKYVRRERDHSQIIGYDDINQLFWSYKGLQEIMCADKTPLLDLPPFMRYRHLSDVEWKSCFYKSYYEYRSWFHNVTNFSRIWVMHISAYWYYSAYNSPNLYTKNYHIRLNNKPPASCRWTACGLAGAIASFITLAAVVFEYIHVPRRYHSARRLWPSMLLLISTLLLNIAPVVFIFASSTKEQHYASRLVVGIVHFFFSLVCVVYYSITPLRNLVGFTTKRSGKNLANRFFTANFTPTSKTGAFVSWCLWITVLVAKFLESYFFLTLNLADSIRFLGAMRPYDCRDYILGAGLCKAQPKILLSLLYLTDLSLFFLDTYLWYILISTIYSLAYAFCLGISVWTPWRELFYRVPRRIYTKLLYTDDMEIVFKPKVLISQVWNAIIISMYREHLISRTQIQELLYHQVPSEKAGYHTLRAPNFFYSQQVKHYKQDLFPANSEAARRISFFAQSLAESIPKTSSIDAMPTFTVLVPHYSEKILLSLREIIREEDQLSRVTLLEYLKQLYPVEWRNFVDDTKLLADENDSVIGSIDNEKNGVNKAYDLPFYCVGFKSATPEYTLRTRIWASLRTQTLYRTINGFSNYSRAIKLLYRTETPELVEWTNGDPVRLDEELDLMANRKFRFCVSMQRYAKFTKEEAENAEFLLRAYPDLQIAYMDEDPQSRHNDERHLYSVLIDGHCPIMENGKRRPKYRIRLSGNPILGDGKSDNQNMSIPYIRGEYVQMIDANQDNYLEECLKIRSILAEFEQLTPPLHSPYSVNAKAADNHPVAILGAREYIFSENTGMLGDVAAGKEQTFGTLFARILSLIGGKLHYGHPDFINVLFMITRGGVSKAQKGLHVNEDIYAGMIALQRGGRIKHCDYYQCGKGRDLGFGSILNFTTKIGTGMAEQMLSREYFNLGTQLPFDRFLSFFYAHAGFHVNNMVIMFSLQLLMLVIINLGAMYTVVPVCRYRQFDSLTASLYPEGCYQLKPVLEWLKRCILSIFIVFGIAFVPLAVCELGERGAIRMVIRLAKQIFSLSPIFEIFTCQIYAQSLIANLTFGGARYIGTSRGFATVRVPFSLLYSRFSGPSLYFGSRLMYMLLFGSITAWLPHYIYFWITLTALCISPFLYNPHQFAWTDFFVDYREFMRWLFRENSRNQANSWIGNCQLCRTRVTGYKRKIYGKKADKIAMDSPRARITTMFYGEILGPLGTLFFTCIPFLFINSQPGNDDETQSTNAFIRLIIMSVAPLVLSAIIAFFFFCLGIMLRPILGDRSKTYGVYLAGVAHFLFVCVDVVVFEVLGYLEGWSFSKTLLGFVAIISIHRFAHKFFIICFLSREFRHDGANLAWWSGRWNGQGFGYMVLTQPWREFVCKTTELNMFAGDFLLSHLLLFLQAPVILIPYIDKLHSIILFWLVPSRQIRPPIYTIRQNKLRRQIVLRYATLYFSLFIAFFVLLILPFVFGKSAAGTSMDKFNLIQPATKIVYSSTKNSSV

T1: Rga7-mEGFP (Schizosaccharomyces pombe) (UniProt O94466)
T1 sequence: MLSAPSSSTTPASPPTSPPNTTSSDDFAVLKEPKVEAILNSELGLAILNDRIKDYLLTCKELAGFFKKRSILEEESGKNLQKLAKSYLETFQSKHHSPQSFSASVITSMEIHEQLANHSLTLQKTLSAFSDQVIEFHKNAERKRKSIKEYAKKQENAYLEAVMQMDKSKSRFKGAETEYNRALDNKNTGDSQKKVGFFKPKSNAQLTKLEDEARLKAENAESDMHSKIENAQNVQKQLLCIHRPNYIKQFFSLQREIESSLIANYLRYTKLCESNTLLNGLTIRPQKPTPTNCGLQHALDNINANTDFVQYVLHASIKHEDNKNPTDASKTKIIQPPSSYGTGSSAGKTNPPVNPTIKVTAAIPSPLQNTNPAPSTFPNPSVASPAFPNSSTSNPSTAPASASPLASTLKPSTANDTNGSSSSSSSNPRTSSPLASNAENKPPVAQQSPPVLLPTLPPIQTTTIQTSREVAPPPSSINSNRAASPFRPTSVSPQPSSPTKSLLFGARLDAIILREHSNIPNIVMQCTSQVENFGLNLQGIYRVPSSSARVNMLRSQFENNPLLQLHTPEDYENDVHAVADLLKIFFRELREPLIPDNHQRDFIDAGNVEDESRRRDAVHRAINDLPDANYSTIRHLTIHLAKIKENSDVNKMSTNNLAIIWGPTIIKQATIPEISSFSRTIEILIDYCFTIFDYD

T2: Rng10-mEGFP (Schizosaccharomyces pombe) (UniProt Q9P6L9)
T2 sequence: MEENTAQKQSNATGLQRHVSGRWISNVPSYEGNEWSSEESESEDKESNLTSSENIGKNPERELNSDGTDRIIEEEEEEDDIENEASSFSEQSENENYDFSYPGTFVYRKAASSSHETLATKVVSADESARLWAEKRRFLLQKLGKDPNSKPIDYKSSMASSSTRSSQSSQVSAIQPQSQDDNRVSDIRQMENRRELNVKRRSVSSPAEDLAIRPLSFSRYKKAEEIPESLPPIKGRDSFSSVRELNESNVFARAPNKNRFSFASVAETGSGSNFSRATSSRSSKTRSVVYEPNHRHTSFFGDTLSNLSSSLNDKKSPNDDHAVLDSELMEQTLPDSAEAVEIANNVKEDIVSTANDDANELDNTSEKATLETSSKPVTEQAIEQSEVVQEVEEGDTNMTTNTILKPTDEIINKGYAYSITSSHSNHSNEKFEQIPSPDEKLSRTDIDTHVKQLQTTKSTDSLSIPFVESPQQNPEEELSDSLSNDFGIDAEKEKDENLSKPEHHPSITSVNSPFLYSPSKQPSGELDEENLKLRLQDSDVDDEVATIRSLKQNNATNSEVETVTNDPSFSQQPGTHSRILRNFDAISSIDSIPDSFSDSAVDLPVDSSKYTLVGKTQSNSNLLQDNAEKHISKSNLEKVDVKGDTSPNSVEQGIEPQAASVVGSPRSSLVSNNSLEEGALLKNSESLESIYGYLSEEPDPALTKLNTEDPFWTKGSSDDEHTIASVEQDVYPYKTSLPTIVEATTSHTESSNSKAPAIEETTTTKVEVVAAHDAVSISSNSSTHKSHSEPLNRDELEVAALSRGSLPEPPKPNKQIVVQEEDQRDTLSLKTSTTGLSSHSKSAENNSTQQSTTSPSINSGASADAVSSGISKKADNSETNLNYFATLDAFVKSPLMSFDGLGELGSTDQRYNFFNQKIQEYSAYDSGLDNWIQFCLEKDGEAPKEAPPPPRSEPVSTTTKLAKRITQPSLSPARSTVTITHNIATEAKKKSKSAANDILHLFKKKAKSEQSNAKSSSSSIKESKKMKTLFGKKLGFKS

T3: 3nmt1-mECitrine-Ync13 (Schizosaccharomyces pombe) (UniProt O13683)
T3 sequence: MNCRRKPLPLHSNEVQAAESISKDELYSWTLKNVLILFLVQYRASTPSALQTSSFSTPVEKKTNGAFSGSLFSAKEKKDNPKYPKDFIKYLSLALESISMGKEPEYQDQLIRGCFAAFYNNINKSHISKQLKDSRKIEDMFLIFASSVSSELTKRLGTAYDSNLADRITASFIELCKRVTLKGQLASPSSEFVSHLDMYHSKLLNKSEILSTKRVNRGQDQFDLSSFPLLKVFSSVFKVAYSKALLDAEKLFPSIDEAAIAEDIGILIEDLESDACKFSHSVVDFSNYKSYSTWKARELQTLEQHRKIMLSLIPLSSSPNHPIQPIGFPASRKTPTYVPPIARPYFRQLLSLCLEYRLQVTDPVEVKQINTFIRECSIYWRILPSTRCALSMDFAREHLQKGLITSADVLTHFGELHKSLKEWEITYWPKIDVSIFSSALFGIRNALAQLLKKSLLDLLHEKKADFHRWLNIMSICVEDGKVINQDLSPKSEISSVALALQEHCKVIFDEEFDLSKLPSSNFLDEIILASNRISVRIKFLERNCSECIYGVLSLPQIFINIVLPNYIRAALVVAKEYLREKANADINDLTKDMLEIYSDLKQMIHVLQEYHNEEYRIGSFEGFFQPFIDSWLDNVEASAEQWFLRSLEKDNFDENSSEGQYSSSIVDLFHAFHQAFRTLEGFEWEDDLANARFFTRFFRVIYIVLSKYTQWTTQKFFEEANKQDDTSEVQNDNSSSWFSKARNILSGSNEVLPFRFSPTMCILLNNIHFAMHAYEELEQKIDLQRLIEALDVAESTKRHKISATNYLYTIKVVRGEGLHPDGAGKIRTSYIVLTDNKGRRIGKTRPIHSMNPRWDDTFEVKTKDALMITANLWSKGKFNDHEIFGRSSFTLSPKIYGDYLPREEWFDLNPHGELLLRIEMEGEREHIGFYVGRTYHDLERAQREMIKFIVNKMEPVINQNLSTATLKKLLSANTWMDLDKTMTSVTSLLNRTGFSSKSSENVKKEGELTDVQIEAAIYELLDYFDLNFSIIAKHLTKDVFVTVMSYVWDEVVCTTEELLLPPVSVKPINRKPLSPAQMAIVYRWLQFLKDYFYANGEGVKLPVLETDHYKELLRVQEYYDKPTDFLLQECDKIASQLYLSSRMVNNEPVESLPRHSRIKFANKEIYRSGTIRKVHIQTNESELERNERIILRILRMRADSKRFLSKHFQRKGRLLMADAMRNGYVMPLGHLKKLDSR


What was measured:
Experiment in all cases: ectopic mistargeting to mitochondria (Tom20-GBP); protein 1 tagged with mEGFP or mECitrine tethered to mitochondria by Tom20-GBP in live S. pombe cells; recruitment of tdTomato/mCherry/RFP-tagged protein 2 seen by confocal microscopy; Ync13 with Sec1 also tested in rng10Δ cells
[1] = target: T1, Rga7-mEGFP (Schizosaccharomyces pombe)
[2] = target: T2, Rng10-mEGFP (Schizosaccharomyces pombe)
[3] = target: T3, 3nmt1-mECitrine-Ync13 (Schizosaccharomyces pombe)

| Molecule | binding [1] | binding [2] | binding [3] |
| --- | --- | --- | --- |
| Rga7-mCherry (protein, UniProt O94466 1-695) MLSAPSSSTTPASPPTSPPNTTSSDDFAVLKEPKVEAILNSELGLAILNDRIKDYLLTCKELAGFFKKRSILEEESGKNLQKLAKSYLETFQSKHHSPQSFSASVITSMEIHEQLANHSLTLQKTLSAFSDQVIEFHKNAERKRKSIKEYAKKQENAYLEAVMQMDKSKSRFKGAETEYNRALDNKNTGDSQKKVGFFKPKSNAQLTKLEDEARLKAENAESDMHSKIENAQNVQKQLLCIHRPNYIKQFFSLQREIESSLIANYLRYTKLCESNTLLNGLTIRPQKPTPTNCGLQHALDNINANTDFVQYVLHASIKHEDNKNPTDASKTKIIQPPSSYGTGSSAGKTNPPVNPTIKVTAAIPSPLQNTNPAPSTFPNPSVASPAFPNSSTSNPSTAPASASPLASTLKPSTANDTNGSSSSSSSNPRTSSPLASNAENKPPVAQQSPPVLLPTLPPIQTTTIQTSREVAPPPSSINSNRAASPFRPTSVSPQPSSPTKSLLFGARLDAIILREHSNIPNIVMQCTSQVENFGLNLQGIYRVPSSSARVNMLRSQFENNPLLQLHTPEDYENDVHAVADLLKIFFRELREPLIPDNHQRDFIDAGNVEDESRRRDAVHRAINDLPDANYSTIRHLTIHLAKIKENSDVNKMSTNNLAIIWGPTIIKQATIPEISSFSRTIEILIDYCFTIFDYD | – | – | binds |
| Clc1-mCherry (protein, UniProt Q9USP6 1-229) MSQFPALEDFDDGLVTAPVDDSKNNTDFLEREKLALGEDAGQFETPEDKDALLNFENDSEAEQTRFEQNFPPIDAEMQASGTFSAPKAPYMGQAEVHPPEDESGDPEPVRKWKEDQMKRIQERDESSKKLRESNIEKARKAIDDFYENFNDKRDKVIAKSRKEQEKLLEENESKSTGTTSWERILKLIDLSDKPEAHGRSTERFRELLISLAKDSNAPGAAGTTVSSSS | – | – | no binding |
| Fim1-mCherry (protein, UniProt O59945 1-614) MLALKLQKKYPELTNEEILTLTDQFNKLDVDGKGYLDQPTTIKAFEDSKKGSYDEVREAIREVNVDSSGRVEPEDFVGIFNVLKKGVEGTEVKKGRITIKGSSSSVSHTINEEERREFIKHINSVLAGDPDVGSRVPINTETFEFFDQCKDGLILSKLINDSVPDTIDERVLNKQRNNKPLDNFKCIENNNVVINSAKAMGGISITNIGAGDILEGREHLILGLVWQIIRRGLLGKIDITLHPELYRLLEEDETLDQFLRLPPEKILLRWFNYHLKAANWPRTVSNFSKDVSDGENYTVLLNQLAPELCSRAPLQTTDVLQRAEQVLQNAEKLDCRKYLTPTAMVAGNPKLNLAFVAHLFNTHPGLEPLNEEEKPEIEPFDAEGEREARVFTLWLNSLDVTPSIHDFFNNLRDGLILLQAYDKITPNTVNWKKVNKAPASGDEMMRFKAVENCNYAVDLGKNQGFSLVGIQGADITDGSRTLTLALVWQMMRMNITKTLHSLSRGGKTLSDSDMVAWANSMAAKGGKGSQIRSFRDPSISTGVFVLDVLHGIKSEYVDYNLVTDGSTEELAIQNARLAISIARKLGAVIFILPEDIVAVRPRLVLHFIGSLMAV | – | – | no binding |

Now from value to molecule:

| binding [1] | binding [2] | binding [3] | Molecule |
| --- | --- | --- | --- |
| no binding | no binding | – | tdTomato-Bgs1 (from UniProt Q10287 1-1729) (enzyme) |
| binds | – | – | Smi1-tdTomato (protein, UniProt O14362 1-504) MSKNSFSSMANSVTSFFQSLTTPNRHADPSFRPSRREKQSRLPTPLQSVAASAYSGVNASQTGLLNDSRANSVTNLPNSSNTSQVGLNNISPAPVGYVPGSKTNELANNSMEMQEISPNGSASLPPPVSESWRRIDRWAEENYYELYCQLCYGATVADVDSLEYELECTLPRDVRESLYIHDGQDRGGQPTGILFGVTLLDIEEIEEESELWRRVAQSYAEATLAGKIDQAVASRQASFPPGAVQCVYAHPGWIPLAKDFVGNNIAIDLAPGPAGQWGQVILFGRDQDTKYVVARSWADFLAIVAYDMENGKWLVDEDDNSLRLIYGPPREQWSYLDILKYRARKAERRKFKKRDGKRTTRPIPKSIAKEDVTNSANSTAPSTGTTVLDDGLDNNYEDIPLYGPSKDEELIKKEELEADTDLGLINTSEINQPANLPDEPTAETSNPVSATTVEAVTTTADNKDEEKNDHVTEDVSQNSTIAEASSLQAQEEEKEIETTSVKQE |
| – | – | binds | Sec1-tdTomato (protein, UniProt O94590 1-693) MTLLELQKELFLSKINSVECATKWKVLIVDTKTADIINHFITIHSLLEEKIAAVEILENPRTPNSSFEALYILHSEEKLVDCILKDEEYDKRYPGIHIVFLDMVKEPLINKLRTSRIASKIRTVQVAYLDFTSLESRYFQVHDSFSGLRLYHPSNAAIIRQELSKVAHGIFSVCVSLGISPNIRCYYPKNAPHASKTMSFILANQLSEIVEEYCSKHPGYHEAASKSTCLIVDRSLDTAAPFLHEFTYQAMIHDLLPIKNEQYPYEILGPQGTEKRTGKLDDDDLVYTTIRHMHMRDAIEKLMKDFNQFCIDNTLFLDKERATSLNDMRSMLAGLSDFQELRDQYSLHLTMAQECMNIFEKQQLNLIGAIEQDLSTGSNVEGKVPRSVLSELLPLLDEGNAEESTKIRLLLLYIIYRDGIILQDLFRLFRHSNLSTSREQIFQNLEQLGTRVIKNLTDQSSKRKEVANSLPAGEDVYELSRYVPTLKVVLENLIQDKLDPELFPYVRNTTPQTEVSMEQTSLRSSRPSWTRSRSMASKLPREKMLVFVAGGTTFSELRTCYELSDKYNKDIYIGSTVCYSPNEWLDFFSKFQQPREALKFPEDKPRHIPCLEARPSPNRIQEQPNIDVPSTRYENTSSSDAVSIHKDEKKSKGKSHKLGKLMMSSKKDKDKSKEKVPTYGTSDKKKKKRFGVF |
